Laboratory results taken from PMC2841637.

Target: T1, GST-tagged Tiam1 (720-841), Ras-binding domain (UniProt Q60610)
T1 sequence: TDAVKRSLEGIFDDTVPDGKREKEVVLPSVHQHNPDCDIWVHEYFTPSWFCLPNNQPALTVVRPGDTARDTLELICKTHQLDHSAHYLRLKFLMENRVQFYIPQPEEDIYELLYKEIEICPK
Test: pull-down; GST-Tiam1 (720-841) on lysates of PC12 cells treated or not with NGF for different times; immunoblot with anti-Ras; only the target purified

- binding: binds
Substance: Ras, endogenous (rat (endogenous in PC12))

No constants are given. Whether binding was seen depends on the method and setting. In cells and extracts the contact can be indirect. Binding calls can cover weak binding; strength is not graded here. Where a sequence is shown, tags or fusion partners need not be part of it.
